Results are given in words; binding and its absence hold for the method and conditions named. Binding seen in cells or lysates may run through a third protein. Some results given as binding are weak or reduced against the parent protein; the word gives no strength.

The target in assay [1] is human p53 (human) (UniProt P04637). Description: summary of the co-immunoprecipitation and cell assays.
Assay [2] shares this target. The assay is described as follows: co-immunoprecipitation of in vitro translated proteins (FIG. 8B).
Assay [3] concerns the target T1, C. elegans p53 (C. elegans), Q20646.
T1 chain: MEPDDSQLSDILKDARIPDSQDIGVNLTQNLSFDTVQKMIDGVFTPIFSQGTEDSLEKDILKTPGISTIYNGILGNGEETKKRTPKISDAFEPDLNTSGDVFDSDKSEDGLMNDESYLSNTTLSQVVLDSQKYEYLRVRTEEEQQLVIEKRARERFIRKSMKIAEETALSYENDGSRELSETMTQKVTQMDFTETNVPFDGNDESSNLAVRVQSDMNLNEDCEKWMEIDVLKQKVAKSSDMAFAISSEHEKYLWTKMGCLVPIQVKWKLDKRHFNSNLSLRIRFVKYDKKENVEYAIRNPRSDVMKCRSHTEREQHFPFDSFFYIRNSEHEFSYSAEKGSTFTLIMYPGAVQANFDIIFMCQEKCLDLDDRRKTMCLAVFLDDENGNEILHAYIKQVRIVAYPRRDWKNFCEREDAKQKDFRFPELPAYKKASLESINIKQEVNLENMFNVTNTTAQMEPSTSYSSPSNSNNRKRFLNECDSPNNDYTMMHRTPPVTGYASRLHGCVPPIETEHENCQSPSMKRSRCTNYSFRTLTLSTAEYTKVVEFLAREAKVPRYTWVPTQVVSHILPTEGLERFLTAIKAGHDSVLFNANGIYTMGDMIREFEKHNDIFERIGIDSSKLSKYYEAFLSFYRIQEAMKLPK
The assay is described as follows: co-immunoprecipitation of in vitro translated proteins, confirmed by reciprocal immunoprecipitation (FIG. 8B). Particulars: remark: other sources report otherwise.

B1: C. elegans iASPP (protein, not shown: small tags and cut ends)
chain: MVTTSSGGGIGYPANNGVTQVSLIHSSDSVRTVSTAPIYRPTSSMASTMAHKSSTAPFISANQRMSKPPVRVVAQPPPPHPQALSQQYHQQNPMMMYSAPNTRPHVIPTMQVQPTMAAQIKRNNPVNAQFQNPSEMIADYGVKPQSVEMVQRVRAVRRQVADEETELRRLRELEHETAQLQNKNYGRERELNVQGSMLKEAQLELRNASMRAQSLNKHLEEMYRRRQTAAAAALVEQRKMQQHQILLARAANQVSTQEVIRPRASVEPFQVNNTQQQQPSPQMMKSEEFSEKRDLNGQTGSYDAIDGSGDHQKIPTEPSYLAPCKENQQKYSELSKMASTDPHSNHSSPSTSSQKAPTLITFSPPSFEQKINSSTMTRDSPFVERPTSFGDSLDESRLRSGKTDLVSLRSDSLKATKRRSWAASEGTSMSEAEMIHRLLDEQRRGRSHFIPQLPTSQEEPSAITSETYAEEVVNSESKQVATSSDSTNNLELPTEQMVLGSDTTTEEDASSCSTRSDDGQNLEMEVAIERRTVKGILRRPNEKMNKGRIEFDPLALLLDAALEGELDLVRSSASKLTDVSQANDEGITALHNAICAGHYEIVRFLIENDADVNAQDSDGWTPLHCAASCNNLPMVRQLVEGGGCVLASTLSDMETPVEKCEEDEDGYDGCLKYLSAAHNSTGSINTGKVYAAYGYEAAFEDELSFDAGDELTVIEKDKVDKNWWTCEKNNGEKGQVPRTYLALYPSLKYRKKLNFVMFDLPLESNNNVE
For B1, the binding result in the assay with human p53 (human) [1] and with human p53 (human) [2] was “binds” in each case.

B2: C. elegans iASPP, Q9XVN3 1-769 (protein, not shown: small tags and cut ends)
chain: MVTTSSGGGIGYPANNGVTQVSLIHSSDSVRTVSTAPIYRPTSSMASTMAHKSSTAPFISANQRMSKPPVRVVAQPPPPHPQALSQQYHQQNPMMMYSAPNTRPHVIPTMQVQPTMAAQIKRNNPVNAQFQNPSEMIADYGVKPQSVEMVQRVRAVRRQVADEETELRRLRELEHETAQLQNKNYGRERELNVQGSMLKEAQLELRNASMRAQSLNKHLEEMYRRRQTAAAAALVEQRKMQQHQILLARAANQVSTQEVIRPRASVEPFQVNNTQQQQPSPQMMKSEEFSEKRDLNGQTGSYDAIDGSGDHQKIPTEPSYLAPCKENQQKYSELSKMASTDPHSNHSSPSTSSQKAPTLITFSPPSFEQKINSSTMTRDSPFVERPTSFGDSLDESRLRSGKTDLVSLRSDSLKATKRRSWAASEGTSMSEAEMIHRLLDEQRRGRSHFIPQLPTSQEEPSAITSETYAEEVVNSESKQVATSSDSTNNLELPTEQMVLGSDTTTEEDASSCSTRSDDGQNLEMEVAIERRTVKGILRRPNEKMNKGRIEFDPLALLLDAALEGELDLVRSSASKLTDVSQANDEGITALHNAICAGHYEIVRFLIENDADVNAQDSDGWTPLHCAASCNNLPMVRQLVEGGGCVLASTLSDMETPVEKCEEDEDGYDGCLKYLSAAHNSTGSINTGKVYAAYGYEAAFEDELSFDAGDELTVIEKDKVDKNWWTCEKNNGEKGQVPRTYLALYPSLKYRKKLNFVMFDLPLESNNNVE
Regarding B2, in assay [3], the binding entry is “binds”.

The record behind these values is patent US20060100143A1.
